Measurements: PubChem BioAssay AID624417 (National Center for Advancing Translational Sciences (NCATS), 2012)
Among all 410,000 compounds or so, about 6,400 (1.6%) were called active. Only results without a clear call are listed here; the source files them as inconclusive. The call rests on the fitted dose curve; in most records, active means well fitted inhibition curve with a large enough effect; inconclusive means small, poorly fitted or top-dose-only effect; inactive means no such curve, though single readings can be large or run the other way. Some of these compounds have results that are not shown, active ones among them.

The chains behind the UniProt entries cited, without tags or fusion partners.
UniProt P43220, whole entry: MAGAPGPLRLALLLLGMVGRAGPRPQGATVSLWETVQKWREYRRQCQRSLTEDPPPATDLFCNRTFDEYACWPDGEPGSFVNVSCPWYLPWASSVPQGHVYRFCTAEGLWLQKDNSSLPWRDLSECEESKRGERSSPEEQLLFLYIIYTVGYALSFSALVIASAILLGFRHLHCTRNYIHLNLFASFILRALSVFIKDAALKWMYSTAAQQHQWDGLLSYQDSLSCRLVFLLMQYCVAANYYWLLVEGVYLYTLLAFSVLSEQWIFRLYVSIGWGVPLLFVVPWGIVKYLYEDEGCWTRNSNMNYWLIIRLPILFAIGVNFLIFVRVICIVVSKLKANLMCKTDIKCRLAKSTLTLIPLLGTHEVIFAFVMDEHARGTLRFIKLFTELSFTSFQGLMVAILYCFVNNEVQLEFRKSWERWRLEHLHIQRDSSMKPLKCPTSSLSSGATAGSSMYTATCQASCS

target: Glucagon-like peptide 1 receptor (Homo sapiens) (UniProt P43220); assay: qHTS of GLP-1 Receptor Inverse Agonists (Inhibition Mode); details: HEK293 GLP-1R CRE-luciferase, luminescence, 24 h; GLP-1R form is constitutively active; further: nearly all actives have a fitted effect of over 55% in size
Potency means the concentration at half of the fitted maximal effect.

SMILES	Potency
CC(C)COc1ccc(C(=O)NCC2(N(C)C)CCCCC2)cc1	inconclusive: 12.6 µM
O=C(OC1CN2CCC1CC2)C(CO)(c1ccccc1)c1ccccc1 (stereo not given)	inconclusive: 10 µM
CCN(CC)CC(C)C(C)OC(=O)C(O)(c1ccccc1)c1ccccc1 (stereo not given)	inconclusive: 25.1 µM
CN(C)C1(CNC(=O)c2cccc(Cl)c2)CCCCC1	inconclusive: 11.2 µM
CCN1CCCC(OC(=O)C2(O)c3ccccc3C=Cc3ccccc32)C1 (stereo not given)	inconclusive: 28.2 µM
